We go through one substance from paper PMC10604625.

This experiment concerns the target T1, SQOR fragment S3 (301-450), yeast two-hybrid fusion (human) (UniProt Q9Y6N5).
T1 sequence: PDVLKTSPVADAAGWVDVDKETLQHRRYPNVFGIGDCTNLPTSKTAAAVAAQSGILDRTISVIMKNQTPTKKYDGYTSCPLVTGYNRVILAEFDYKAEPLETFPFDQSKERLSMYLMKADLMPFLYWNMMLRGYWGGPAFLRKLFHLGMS
The experiment is described as follows: two-hybrid; yeast two-hybrid-based growth assay: diploid yeast in broth with serially diluted irisflorentin (IFT, up to 100 uM), spot assay on non-selective (SD/-Leu/-Trp) or selective (SD/-Ade/-His/-Leu/-Trp) plates, 30 C, 3 days, and OD600 in broth every 12 h for 48 h.

No constants are given. Whether binding was seen depends on the method and setting. Binding calls can cover weak binding; strength is not graded here. Where a sequence is shown, tags or fusion partners need not be part of it.

Take “glycine-alanine dipeptide repeat protein GA50, yeast two-hybrid fusion (human)”: the binding result is “binds”.
